PubChem BioAssay AID1347076 (National Center for Advancing Translational Sciences (NCATS), 2019)
The whole screen tested about 400,000 compounds, of which about 13,000 (3.2%) were called active. Inconclusive means that the source gave no clear call. Such entries were picked first, then a sample of the others. Calls follow the shape of the dose curve; as a rule, active = well fitted cell-killing curve with a large enough effect; inconclusive = small, poorly fitted or top-dose-only effect, or effect the other way; inactive = flat fitted curve, though single readings scatter. A potency beside an inconclusive call is a rough fit, not a confirmed value.

Assay: qHTS assay for MDR1-selective chemotherapeutics: Primary screen using the drug-selected MDR subline cells KB-V1; also: nearly all actives have a fitted effect of over 60% in size
Settings: KB-V1 MDR cells viability, CellTiter-Glo, 72 h; series mostly up to 46.1 µM
In short: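 In this primary screen, KB-V1 cells overexpressing P-gp are incubated with library compounds (lowest to highest concentration) for 72 h at 37 degrees C before a luminescent ATP viability read.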
Potency is read from the fitted curve at half-maximal effect.

| Structure (SMILES) | Potency |
| --- | --- |
| COc1cc2[nH]c(=S)n(N(C(C)=O)C(C)=O)c(=O)c2cc1OC | inactive |
| CCOc1cc(C(=S)N2CCOCC2)ccc1OC(=O)c1ccccc1 | inactive |
| COC(=O)c1ccccc1NC(=O)C1CC(=O)N(c2ccc(C)cc2)C1 (stereo not given) | inconclusive: 18.4 µM [cytotoxic, single point] |
| Cc1ccc(NC(=O)/C=C/c2ccccc2)c(Br)c1 | inactive |
| Oc1ccccc1Oc1ncc(Br)c(Cl)n1 | inactive |
| O=C(CSc1nc2ccccc2s1)N1CCCCC1 | inactive |
| CC(OC(=O)/C=C/c1ccc(Br)cc1)C(=O)N1CCOCC1 (stereo not given) | inconclusive: 18.4 µM [cytotoxic, partial curve] |
| O=C(NCCCNC(=O)c1ccco1)c1cccc(F)c1 | inactive |
| O=C(NCCCCc1ccccc1)c1ccccc1 | inconclusive: 20.6 µM [cytotoxic, single point] |
| CN1CCN(C(=O)C(=O)Nc2c3c(nn2-c2ccc(F)cc2)CSC3)CC1 | inactive |
| CCN1CCN(S(=O)(=O)c2cc(C(=O)O)ccc2Cl)CC1 | inconclusive: 29.1 µM [rising, single point] |
| C=CCOc1cccc(C2NC(=O)c3ccccc3O2)c1 (stereo not given) | inactive |
| Cc1ccc(C)c(CN2C(=O)c3ccccc3S(=O)(=O)c3ccc(C(=O)Nc4ccccc4C(F)(F)F)cc32)c1 | inactive |
| C=CC[C@@H](CC(=O)N(CCO)Cc1ccccc1)C(=O)N[C@H](COC(=O)[C@@H](CC=C)Cc1ccc(F)cc1)c1ccccc1 | inconclusive: 25.9 µM [cytotoxic, single point] |
| O=C(CN1CCc2ccccc2C1)Nc1cccc(S(=O)(=O)N2CCOCC2)c1 | active: 18.4 µM |
| CC(C)CC(=O)Nc1ccc(C(=O)COC(=O)Cc2n[nH]c(=O)c3ccccc23)cc1 | inconclusive: 18.4 µM [rising, single point] |
| CSc1ccc(CCNC(=O)C2CCN(c3nc4ccccc4nc3C(F)(F)F)CC2)cc1 | inconclusive: 18.4 µM [cytotoxic, single point] |
| CNC(=O)C1(C)C=CC2(CCCCC2)N1C(=O)OC (stereo not given) | inconclusive: 29.1 µM [rising, single point] |
| COc1ccccc1CNC(=O)C1(C)CCN1C(=O)C1(c2ccccc2)CC1 (stereo not given) | inconclusive: 9.2 µM [cytotoxic, partial curve] |
| CCn1c(=O)cc(SCC(=O)Nc2ccc3c(c2)OCO3)c2ccccc21 | active: 16.4 µM |
| C(=N\Nc1nc2ccccc2[nH]1)/c1ccccn1 | inactive |
| CCc1ccc(-c2nc3ccc(Br)cc3c(C(=O)O)c2C)s1 | inactive |
| COc1cc(/C=C/C(=O)c2ccc(Cl)s2)cc(OC)c1O | inconclusive: 29.1 µM [cytotoxic, single point] |
| CCN(CC)S(=O)(=O)c1ccc(C(=O)Nc2nnc(NC(=S)Nc3ccccc3)s2)cc1 | inactive |

| Structure (SMILES) | Potency |
| --- | --- |
| CCCCn1nnnc1C1(C)CCC(=O)N1CCCn1ccnc1 (stereo not given) | inactive |
| Cc1ccc(Cn2c(C)c(C(=O)NCc3cccc(C(F)(F)F)c3)sc2=O)cc1 | inconclusive: 16.4 µM [cytotoxic, partial curve] |
| Cc1ccc(N=Nc2c(C)[nH]n(-c3ccccc3)c2=O)c(C)c1 | inconclusive: 0.184 µM [rising, full curve] |
| Cc1ccc(Nc2nc(NCCCN3CCOCC3)nc(N)c2[N+](=O)[O-])cc1C | inactive |
| CCCCN(S(=O)(=O)c1ccccc1)S(=O)(=O)c1ccccc1 | inconclusive: 16.4 µM [cytotoxic, partial curve, poor fit] |
| C[C@H](O)[C@@H]1CN2CCc3c([nH]c4ccc(-c5ccc6c(c5)OCO6)cc34)[C@@H]2C[C@@H]1N(C)C(=O)Nc1ccc(F)cc1 | inconclusive: 29.1 µM [cytotoxic, single point] |
| C/C(=N\NC(=O)c1nc2ccccn2c1C)c1ccc2c(c1)OCO2 | inconclusive: 20.6 µM [cytotoxic, partial curve] |
| COCCn1c(C)nnc1SCC(=O)NNC(=O)c1ccc(Br)cc1 | inconclusive: 29.1 µM [rising, single point] |
| c1ccc(CSc2nnc(-c3cccs3)o2)cc1 | inconclusive: 23.1 µM [cytotoxic, partial curve] |
| N#CC1=C(N)NC(=S)C(C(N)=O)C1c1ccc([N+](=O)[O-])cc1 (stereo not given) | inactive |
| Cc1ccc(Cn2c(SCC(=O)Nc3cc(C)on3)nc3ccccc3c2=O)cc1 | inconclusive: 20.6 µM [cytotoxic, single point] |
| Cc1nn(-c2ccccc2)c(C)c1/C=N/NC(=O)c1cc(-c2cccs2)[nH]n1 | inconclusive: 0.651 µM [cytotoxic, full curve, poor fit] |
| CCCCn1c(N)c(N(CC)C(=O)c2cccc(S(=O)(=O)N3CCN(C)CC3)c2)c(=O)[nH]c1=O | inconclusive: 10.3 µM [rising, partial curve] |
| CCOC(=O)N/N=C/c1ccc(OCCSc2ccc(Cl)cc2)c(OC)c1 | inconclusive: 14.6 µM [cytotoxic, partial curve] |
| CCc1nnc(NC(=O)c2cc(=O)c3cc(C)c(C)cc3o2)s1 | inconclusive: 25.9 µM [rising, single point] |
| C=CCN1C(=O)N(/C=C/C)c2cccc3cccc1c23 | inconclusive: 20.6 µM [cytotoxic, partial curve, poor fit] |
| Cc1ccc(CN2CC(C(=O)Nc3ccc(S(=O)(=O)N4CCCCC4)cc3)CC2=O)cc1 (stereo not given) | inconclusive: 3.26 µM [cytotoxic, partial curve, poor fit] |
| COC(=O)[C@@]12CCCCN1[C@H](c1ccc(-c3cccc(Cl)c3)c(OC)c1)[C@@H]1C(=O)N(C)C(=O)[C@@H]12 | inconclusive: 20.6 µM [cytotoxic, single point] |
| COc1ccc(N)cc1NC(=O)CN1CCOCC1 | inactive |
| O=C(NC1CCCc2ccccc21)C1CCN(S(=O)(=O)c2ccccc2F)CC1 (stereo not given) | active: 7.31 µM |
| CCCC(NC(=O)CCc1c(C)c2cc3c(-c4ccccc4)coc3cc2oc1=O)C(=O)O (stereo not given) | inactive |
| COc1cc(OC)c(OC)cc1CN1CCN(c2ccccc2OC)CC1 | inconclusive: 20.6 µM [cytotoxic, partial curve, poor fit] |
| CC(=O)c1ccc(OCCCC(=O)N2CCN(S(=O)(=O)c3ccc(C)cc3C)CC2)cc1 | inconclusive: 0.58 µM [cytotoxic, partial curve, poor fit] |
| CCOC(=O)c1cccc(N2CC3CNC(=O)C2(C(=O)OC)N3C)c1 (stereo not given) | inconclusive: 29.1 µM [rising, single point] |

| Structure (SMILES) | Potency |
| --- | --- |
| COc1ccccc1-c1noc(CSc2nc3ccc(C)cc3[nH]2)n1 | inconclusive: 20.6 µM [cytotoxic, single point] |
| Cc1cccc(OCCCN2C(=O)C(=O)c3cc(C)ccc32)c1 | inconclusive: 16.4 µM [cytotoxic, single point] |
| Cc1cc(=O)oc2c3c(cc(OCC(=O)Nc4cccnc4)c12)OC(C)(C)CC3 | inactive |
| CC(CNC(=O)C1CCN(Cc2cc3ccccc3n2Cc2ccccc2)CC1)c1ccccc1 (stereo not given) | inactive |
| Cn1cc(S(=O)(=O)NC2CCCC2)c(=O)n(C)c1=O | inconclusive: 23.1 µM [rising, partial curve, poor fit] |
| Cc1ccc(-c2cc(C(=O)N3CCc4ccccc4C3)[nH]n2)cc1C | inactive |
| Cc1ccc2c(CC(=O)Nc3ccccc3C(F)(F)F)coc2c1C | inconclusive: 5.8 µM [rising, partial curve] |
| Nc1nc(N2CCCCC2)c(C=O)c(N2CCCCC2)n1 | inconclusive: 23.1 µM [cytotoxic, single point] |
| Cc1ccc(S(=O)(=O)N2CCN(C(=O)c3cccs3)CC2)cc1 | inconclusive: 18.4 µM [cytotoxic, single point] |
| Cn1c(SCC(=O)Nc2ccccc2F)nnc1-c1cccnc1 | inconclusive: 29.1 µM [rising, single point] |
| O=C(C=CC(=O)OC1CCCCC1)OC1CCCCC1 | inactive |
| COc1ccc(N=C2C(=Nc3ccc(OC)cc3)N(c3ccc(OC)cc3)C(=S)N2C)cc1 | inconclusive: 8.2 µM [cytotoxic, partial curve, poor fit] |
| CCCOc1ccc(C(=O)c2ccccc2C(=O)O)cc1OCCC | inconclusive: 29.1 µM [rising, single point] |
| CCOC(=O)c1c(NC(=O)COC(=O)CC(NC(C)=O)c2ccccc2)sc(C(=O)NC)c1C (stereo not given) | inconclusive: 18.4 µM [cytotoxic, single point] |
| CC(=O)Nc1ccc(OCC(=O)NC(C)c2ccc(F)cc2)cc1 (stereo not given) | inconclusive: 29.1 µM [rising, single point] |
| O=C(COc1cccnc1[N+](=O)[O-])NCCc1ccc(Cl)cc1 | inconclusive: 18.4 µM [cytotoxic, single point] |
| O=C(Nc1ccc2c(c1)OCO2)Nc1cnccn1 | inconclusive: 18.4 µM [cytotoxic, single point] |
| CCOc1ccccc1NC(=O)C1CCCN(S(=O)(=O)c2ccc3c(c2)C(C)(C)C(=O)N3C)C1 (stereo not given) | inactive |
| CC(C)Cn1cnc2c1c(=O)n(C)c(=O)n2C | inconclusive: 18.4 µM [cytotoxic, single point] |
| CCOc1ccc(C2C(C(=O)c3ccc(C)o3)=C(O)C(=O)N2Cc2cccnc2)cc1 (stereo not given) | inconclusive: 8.2 µM [rising, partial curve, poor fit] |
| Cc1ccc2c(=O)cc(C(=O)NCCc3ccc(S(N)(=O)=O)cc3)oc2c1 | inactive |
| CCOc1cc(CNCCSc2nnnn2-c2ccccc2)cc(Cl)c1OC | inactive |

3 entries out of the list, ordered by molecular weight, rising:

| Structure (SMILES) | Potency |
| --- | --- |
| CC(C)Cn1cnc2c1c(=O)n(C)c(=O)n2C | inconclusive: 18.4 µM [cytotoxic, single point] |
| O=C(COc1cccnc1[N+](=O)[O-])NCCc1ccc(Cl)cc1 | inconclusive: 18.4 µM [cytotoxic, single point] |
| Cn1c(SCC(=O)Nc2ccccc2F)nnc1-c1cccnc1 | inconclusive: 29.1 µM [rising, single point] |
